Results are given in words; binding and its absence hold for the method and conditions named. In cells and extracts the contact can be indirect. Some binding calls cover weakened binding; strength is not graded here. Sequences can lack the tags named with a protein. Blank lines part the entries; values can stand above or below the molecule they belong to.
How the values were obtained:
[1] = molecular target: T1, GST-AKR1C1 (glutathione S-transferase-tagged AKR1C1 fusion protein) (human) (UniProt Q04828); assay: pull-down; purified GST-AKR1C1 fusion protein with NSCLC PC-9 cell lysates; only the target purified
T1 sequence: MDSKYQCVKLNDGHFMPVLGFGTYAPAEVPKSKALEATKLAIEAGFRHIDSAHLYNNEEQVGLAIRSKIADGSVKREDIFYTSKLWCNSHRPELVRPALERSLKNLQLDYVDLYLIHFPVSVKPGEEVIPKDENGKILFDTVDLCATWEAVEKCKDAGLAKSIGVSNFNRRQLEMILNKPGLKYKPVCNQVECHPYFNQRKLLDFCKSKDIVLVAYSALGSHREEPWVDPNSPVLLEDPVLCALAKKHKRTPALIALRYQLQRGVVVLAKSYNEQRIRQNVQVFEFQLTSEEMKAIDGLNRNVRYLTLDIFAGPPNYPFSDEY

By UniProt entry, the sequences of proteins in these tests, tags left out.
UniProt Q9UBN7: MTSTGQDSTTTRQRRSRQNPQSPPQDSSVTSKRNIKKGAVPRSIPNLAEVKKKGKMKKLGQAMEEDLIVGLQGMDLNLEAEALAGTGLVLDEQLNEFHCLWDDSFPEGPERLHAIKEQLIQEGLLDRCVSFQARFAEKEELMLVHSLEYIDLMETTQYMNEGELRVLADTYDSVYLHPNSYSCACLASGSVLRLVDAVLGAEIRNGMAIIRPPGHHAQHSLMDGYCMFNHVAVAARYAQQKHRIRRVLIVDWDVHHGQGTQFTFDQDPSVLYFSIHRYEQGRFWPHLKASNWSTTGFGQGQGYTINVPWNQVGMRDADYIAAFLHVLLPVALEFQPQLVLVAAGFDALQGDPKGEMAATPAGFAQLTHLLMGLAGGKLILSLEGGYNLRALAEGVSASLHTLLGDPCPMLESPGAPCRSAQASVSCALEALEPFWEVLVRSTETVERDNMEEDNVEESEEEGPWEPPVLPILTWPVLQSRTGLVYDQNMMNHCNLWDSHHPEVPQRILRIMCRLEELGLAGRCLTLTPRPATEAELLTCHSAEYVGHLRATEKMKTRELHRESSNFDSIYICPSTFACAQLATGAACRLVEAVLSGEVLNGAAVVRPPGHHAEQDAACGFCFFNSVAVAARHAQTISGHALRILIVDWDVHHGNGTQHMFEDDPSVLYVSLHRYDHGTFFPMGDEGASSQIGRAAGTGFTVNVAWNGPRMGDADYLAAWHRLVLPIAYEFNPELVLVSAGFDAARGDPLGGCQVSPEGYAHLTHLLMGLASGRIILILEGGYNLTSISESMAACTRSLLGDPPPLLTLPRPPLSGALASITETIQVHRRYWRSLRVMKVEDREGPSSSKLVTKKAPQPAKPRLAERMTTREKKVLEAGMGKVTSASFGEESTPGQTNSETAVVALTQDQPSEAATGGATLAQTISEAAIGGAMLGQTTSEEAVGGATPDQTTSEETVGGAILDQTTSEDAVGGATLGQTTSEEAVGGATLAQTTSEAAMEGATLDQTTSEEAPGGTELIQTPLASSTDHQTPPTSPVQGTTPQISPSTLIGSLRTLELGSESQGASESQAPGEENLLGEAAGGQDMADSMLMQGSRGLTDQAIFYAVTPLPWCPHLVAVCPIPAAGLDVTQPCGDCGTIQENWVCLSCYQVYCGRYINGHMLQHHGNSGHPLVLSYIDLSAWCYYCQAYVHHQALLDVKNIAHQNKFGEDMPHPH

[2] = molecular target: T2, Flag-tagged SIRT2 (Sirtuin 2) (UniProt Q8IXJ6); assay: co-IP; NCI-H1299 cells transfected with HA-tagged AKR1C1 and Flag-tagged SIRT2, singly or in combination; IP and Western blot
T2 sequence: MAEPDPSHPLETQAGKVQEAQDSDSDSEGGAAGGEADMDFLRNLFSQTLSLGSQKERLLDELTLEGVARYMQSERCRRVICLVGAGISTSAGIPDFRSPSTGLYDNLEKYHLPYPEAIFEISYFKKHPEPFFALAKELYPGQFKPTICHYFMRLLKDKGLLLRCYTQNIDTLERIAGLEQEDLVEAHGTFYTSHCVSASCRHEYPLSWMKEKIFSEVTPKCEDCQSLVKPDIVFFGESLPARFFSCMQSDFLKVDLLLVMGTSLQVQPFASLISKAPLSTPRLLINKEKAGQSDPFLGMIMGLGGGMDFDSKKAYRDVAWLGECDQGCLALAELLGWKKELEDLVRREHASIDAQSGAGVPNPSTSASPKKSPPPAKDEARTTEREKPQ

[3] = molecular target: T2, Flag-tagged SIRT2 (Sirtuin 2); assay: co-IP; 293FT cells transfected with HA-tagged AKR1C1 and Flag-tagged SIRT2, singly or in combination; precipitated by anti-Flag antibody; lysis buffer 25 mM Tris, 150 mM NaCl, 10% glycerol, 1% NP40, pH 7.4; Western blot

binding [1]: no binding
Molecule: HDAC6 from PC-9 cell lysates (from UniProt Q9UBN7 1-1215) (enzyme)

binding [2]: binds | binding [3]: binds
B1: HA-tagged AKR1C1 (aldo-keto reductase family 1 member C1) (enzyme, UniProt Q04828 1-323)
chain: T1 sequence

binding [1]: binds
B2: SIRT2 from PC-9 cell lysates (enzyme, UniProt Q8IXJ6 1-389)
chain: T2 sequence

Reference: article PMC7019158
